Assay results from article PMC12218279.
No constants are given. Whether binding was seen depends on the method and setting. In cells and extracts the contact can be indirect. A yes stands for co-enrichment or nearness to the bait. Other partners may have been found. Tags and fused reporters may be left off the sequences shown.

The chains behind the UniProt entries cited, without tags or fusion partners. Where a name states a change or a piece, a line headed by the entry shows the natural chain unless it says otherwise.
UniProt C6KSU5: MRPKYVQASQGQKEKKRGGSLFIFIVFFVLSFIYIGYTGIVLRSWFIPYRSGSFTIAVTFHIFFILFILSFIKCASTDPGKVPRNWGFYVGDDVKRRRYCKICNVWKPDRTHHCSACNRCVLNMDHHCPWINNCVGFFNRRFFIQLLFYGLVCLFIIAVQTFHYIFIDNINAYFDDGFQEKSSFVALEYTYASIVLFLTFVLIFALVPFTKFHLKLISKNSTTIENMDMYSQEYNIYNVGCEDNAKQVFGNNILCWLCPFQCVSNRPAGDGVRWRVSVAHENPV
UniProt Q8I3V1: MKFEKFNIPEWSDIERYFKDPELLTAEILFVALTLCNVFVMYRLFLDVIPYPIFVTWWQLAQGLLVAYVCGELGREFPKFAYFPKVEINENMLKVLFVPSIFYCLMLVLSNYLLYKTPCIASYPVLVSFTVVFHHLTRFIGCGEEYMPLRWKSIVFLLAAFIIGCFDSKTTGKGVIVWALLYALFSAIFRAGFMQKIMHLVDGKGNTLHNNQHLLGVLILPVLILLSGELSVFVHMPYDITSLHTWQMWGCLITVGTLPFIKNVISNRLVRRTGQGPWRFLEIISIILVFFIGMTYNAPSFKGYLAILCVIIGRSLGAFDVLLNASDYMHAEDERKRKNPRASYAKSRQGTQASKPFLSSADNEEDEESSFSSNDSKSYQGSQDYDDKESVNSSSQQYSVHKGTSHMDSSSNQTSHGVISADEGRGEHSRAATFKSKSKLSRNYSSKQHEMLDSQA
UniProt Q8I3N7: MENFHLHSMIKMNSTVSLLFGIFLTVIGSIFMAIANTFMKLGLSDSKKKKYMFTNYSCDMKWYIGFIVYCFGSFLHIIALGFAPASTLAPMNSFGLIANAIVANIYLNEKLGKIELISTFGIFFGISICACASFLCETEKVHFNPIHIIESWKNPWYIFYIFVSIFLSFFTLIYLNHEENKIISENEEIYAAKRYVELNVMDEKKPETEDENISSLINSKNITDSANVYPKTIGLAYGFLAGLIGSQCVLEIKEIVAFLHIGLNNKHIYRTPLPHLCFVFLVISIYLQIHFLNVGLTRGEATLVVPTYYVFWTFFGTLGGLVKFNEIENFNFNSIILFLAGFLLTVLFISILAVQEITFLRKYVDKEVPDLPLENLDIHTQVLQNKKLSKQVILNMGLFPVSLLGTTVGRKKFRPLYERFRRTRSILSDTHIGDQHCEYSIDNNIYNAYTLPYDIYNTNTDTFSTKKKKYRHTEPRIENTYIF

T1: PfSKP1-HA (P. falciparum) (UniProt Q8ID38)
T1 sequence: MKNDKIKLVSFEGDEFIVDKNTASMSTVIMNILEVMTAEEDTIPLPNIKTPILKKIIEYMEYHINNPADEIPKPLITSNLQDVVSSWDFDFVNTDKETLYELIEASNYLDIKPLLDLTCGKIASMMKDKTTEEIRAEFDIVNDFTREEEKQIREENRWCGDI

T2: PfRBX1-HA (P. falciparum) (UniProt O77367)
T2 sequence: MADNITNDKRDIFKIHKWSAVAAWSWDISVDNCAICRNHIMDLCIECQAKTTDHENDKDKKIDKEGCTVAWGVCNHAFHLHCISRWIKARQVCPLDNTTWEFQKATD

T3: PfMCM4-Flag (P. falciparum) (UniProt Q8IEE5)
T3 sequence: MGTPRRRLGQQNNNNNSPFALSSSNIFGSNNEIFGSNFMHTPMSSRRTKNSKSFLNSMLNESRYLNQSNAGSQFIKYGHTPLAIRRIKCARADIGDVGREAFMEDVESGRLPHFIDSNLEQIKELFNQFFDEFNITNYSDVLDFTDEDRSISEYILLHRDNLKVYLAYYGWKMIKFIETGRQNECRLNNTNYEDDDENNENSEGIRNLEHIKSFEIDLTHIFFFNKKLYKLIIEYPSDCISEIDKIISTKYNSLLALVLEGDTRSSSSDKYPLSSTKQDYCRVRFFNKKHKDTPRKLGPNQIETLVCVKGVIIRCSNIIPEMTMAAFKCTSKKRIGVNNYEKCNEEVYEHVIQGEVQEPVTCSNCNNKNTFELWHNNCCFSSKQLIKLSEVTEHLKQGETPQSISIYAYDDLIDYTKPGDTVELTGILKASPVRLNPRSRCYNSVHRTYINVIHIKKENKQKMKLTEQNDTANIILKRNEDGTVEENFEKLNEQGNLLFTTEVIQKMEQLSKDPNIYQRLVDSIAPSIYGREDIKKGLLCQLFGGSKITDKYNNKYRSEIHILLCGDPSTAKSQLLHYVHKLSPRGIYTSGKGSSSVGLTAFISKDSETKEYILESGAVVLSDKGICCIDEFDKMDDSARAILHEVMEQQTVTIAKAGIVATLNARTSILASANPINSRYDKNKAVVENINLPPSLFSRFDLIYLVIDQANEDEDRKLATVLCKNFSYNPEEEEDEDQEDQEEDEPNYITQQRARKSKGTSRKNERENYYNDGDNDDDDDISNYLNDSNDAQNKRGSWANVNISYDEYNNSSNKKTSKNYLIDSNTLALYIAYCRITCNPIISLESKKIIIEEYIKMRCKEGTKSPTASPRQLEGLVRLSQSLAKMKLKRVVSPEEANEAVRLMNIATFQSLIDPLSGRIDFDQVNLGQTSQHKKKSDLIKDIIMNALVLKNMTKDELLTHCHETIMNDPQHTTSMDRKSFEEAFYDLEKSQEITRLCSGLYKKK


Experiments:
[1] = molecular target: T1, PfSKP1-HA (P. falciparum); assay: affinity purification with mass spectrometry; anti-HA agarose immunoprecipitation of PfSKP1-HA from schizont lysate (0.5X RIPA buffer, 1 h at room temperature), LC-MS/MS (DIA); parental DiCre strain as control
[2] = molecular target: T2, PfRBX1-HA (P. falciparum); assay: affinity purification with mass spectrometry; anti-HA agarose immunoprecipitation of PfRBX1-HA from schizont lysate (0.5X RIPA buffer, 1 h at room temperature), LC-MS/MS (DIA); parental DiCre strain as control
[3] = molecular target: T3, PfMCM4-Flag (P. falciparum); assay: affinity purification with mass spectrometry; anti-Flag agarose immunoprecipitation of PfMCM4-Flag from schizont lysate (0.5X RIPA buffer), LC-MS/MS; DiCre strain as control; also from DiCre-PfSKP1-HA and DiCre-PfRBX1-HA backgrounds pre-treated with DMSO or rapamycin

| Molecule | binding [2] | binding [3] | binding [1] |
| --- | --- | --- | --- |
| palmitoytransferase PfDHHC2 (from UniProt C6KSU5) (enzyme) |  |  | binds |
| PfGAP40 (from UniProt Q8I3V1) |  |  | binds |
| inner membrane complex protein (PF3D7_0522600) (from UniProt Q8I3N7) |  |  | binds |

Now from value to molecule, other results behind:

| binding [2] | binding [3] | Molecule | binding [1] |
| --- | --- | --- | --- |
| binds | binds | PfCullin2 (protein, UniProt C6KTD3 1-1129) MDPTAVNNYPVFYVKNKDFLNVDNEHIRCSLKRFEEYIHECFSILPYNKIKIQNEEKISVQHFCDVLVFNQCEQIICAIIEKECNEKTKQFFEEVEIRIKNEEFKNGEEEFLKLFVSIWNNFSLVLIHISDILQSFIAYTKNMCCNFFDPTQIFNYLWKKYINQYVIIKNMFISSICNYLTYDKIYCETYFYEYVCVNICNKYATKRYNLKKNQINYIERLQNIQKNYQVNNEATNKQTNKINKKDCINKKEIPTENITYKTKEEEHIQRGDHNNNNNYNNSYDNNNYSDDIYNSNPYLDDTNHEYKNTQKKKKINDKVLSLSIKISDILNLYDDFERIYKNETYTFYKEKIEKYKKDMETLGYEECNFDFPIIVENYLCHEQIRSRKFLKEHTEITILNMLKDLLLVKNRDVLFKDSYIKYCIIKEKYDPLRSVYLYSLNLDDLENFSNIFFNVVDNIGTELVNDVINKRNNSSLLNNAIIKLINFKLNVDRIIIMSFRYSSYFMKKWREVFEHFINKGIQAETYMPIILSMYLNNLLTMYNACLRKLKKYYILNKKIKNNRSLFNNLLFEVDWNNYCTQPISETIDFYDISTDSDNMLGIKKYLRKKRKNTKKDLINFEHEEEYVKRKHMDNNIHNNDHNDNIYFNNNLYFNNDYHNNLYYDSLNINKRSDEKIFFHLLKIDKLFKKYHIIGKYIMNMITVILSLFRYVSDKEKFEKYYRTYMCKRLINDSSFNIILDVKVFKTLKKECGAQFTKKIEIILKDMKFTSKTLMKFYKELPNNVNHFLKRKKYAVNIIFNESWEYVNTENNVIYPPMIKMCNEAFFLFYQKYNKSKNIKFLPLLGLCTLRVHFKNFKEEGSFDLGKRDDNNDEKRDDNNDEKRDHNNIEKRDDNNIEKRDDNNIEKRDDNNIEKRDDNNDEKRDENNDKKRDENNNYSDDNDDDLNNEDSSSTYNKKGKKKIYITVTILQALVLLLFNKKNEYHINEIKELTGISTENIIRYLKTIYTIGETHILIYDKANEILKLNFSFRSKKKFLIVNYNDVLYKDDMGPTTSLLNEDNEIEDKTLHIDAAIVKFLKTNGKSSERKICSFIKDKMDISSNEQIKNRISSLLSREFIFFKNNNYHYEL |  |
|  | binds | PfMCM6 (protein, UniProt Q8IDF0 1-929) MSAIFNESELSGLDAHSAFGNNETSSFQKKKRRIDENSQMSVNDLVDDGEEEEDDDDDEEEPSYVQDQNMAKVFEKFLKTFSEKKSEEDDDDGDSIWKDSLNFDFPSNLEIAKDSHYVLLLFSILQNSYSRNKVLIVDMKHVLMWEPTDKNRFDIGSQLYMYIKRHFLRILDIFEKKVQLLAESINPIKTKEVGKICLRFYNKKNPIHSLRSLRCEMLGEMISVRGQVTRTSDVRPELTLAAFKCNECGNIINGVKQQFRYTQPSKCPSASCSNMSDWSLVLEQSYFVDWQKIRLQEIAQESPPGSMPRNMDVILRNDIVDSVHAGDRIIVTGCLIVVPDIPTLMKPGDVPRSVARQLLKKNENSLVSQGLTGIKGVGVQDLNHKLCIYACQIEKLNSSKKDNNFDEQTQVDINCEEILNCDDLKWLRDIAMHPNTIDILAECIAPKIWGNLEIKKGALLMMTGGVQKITSNCKLRGDINMCIVGDPGTAKSEILKYVESFAPRAIFTSGKGSTAAGLTAAVHRDPDQGDTVLEAGALMYADQGICCIDEFDKMDEKDRVAIHEAMEQQTISITKAGIQATLNARASVLAACNPKYGRYDTLKTFAQNVNIPAPLLSRFDLFYTMLDCIDIDKDTSIANHLVSMHCGEEAEKHLRANAGKLDSVKLEIYLELSKRVKPLLTDEAKYKLIQYYVSFRNIEYSPGAQRSMRMTVRQLESLIRLSEAVAKLKFSHFVDVKHVEIACSIFKASMKKISNEKEINLDEEFDKVNNSLMGNKVNKLDQETENTEQNKKITTIKASEYQYISAIIFEIIKEYEFNNNNESITQDQLIETYLQVYAKAESSEQVDEWIYKLKKIINRLINQDIKLLSETNEDDPEKVIIRIHPNYAGPIVEGVSNKNTYGYNTFKNYQTQEKAPEDDVDFQEEIDNF |  |
|  | binds | PfMCM7 (protein, UniProt Q8IC16 1-821) MGERRRDIRSYLDDSHTKYLEAVKNYNAHIDELVRFLDTFEDPAVNHTNWGKLKYKGYLQKIYNHDTEVLPIYLGDLREYFSKENDDVDYSVYNGIMTNTHRYMELLYSAADKCLSDECYKRFMRGYGEEDESEKIKKRNLRRINNEDNSGYSTDESEKEAFNNLFRDMIKPIEEIRQERMKEYKLPAYLRVNFEIILIPSSRDLVRKMRIVNADCIGSLSTFECEVIRATQLKPRIQVATYECDRCHVFAYKAVDGPFFMPLFDCPGCTNVHGVRGSLKFQSKLSKFVKYQEIKVQELSSQLPEGDIPRSMNCIIHGESTTSIQPGMSVTLTGVLMPVTKSGYQALKGGLIAEKVFHIYYVQNNKENFNEHIDNYDKIMEQVQELKNSPNLYEKLAYNIGPEIYGHDDVKKALLLQLIGGCTKKKKDGGLIRGDIHILLMGDPGVAKSQLMKKVCLIASRSIYTTGKGSSSVGLTAAVLKDPNTGETTLEGGALVLADKGICCIDEFDKMDEYDRSAIYEVMEQQTVSIAKAGHCSNMPARSSVLAAANPVNGKYDCKKSVMLNMNLPAALLTRFDLQFLLLDVSDREKDKKLAEHVLNILKCIDSSDEKKKKSELNDDGYEEIDKTVLRAFIQLAKKKQPTISPELIPKITQWYVSTRQLESQQERYSDTRINYTTPRALLAILRISQALARLRDSDVIETADFEEAIRLTEQSKASVSLQTEKRRRKDVSNEIMNIIKNIKDKIMEKKKRWNGWIPIEEIERQSVTKGFTRAHVMNTIDKYVELTVFTINENNTAIAFPNDVYNEDDEYDEMEQEDYE |  |
|  | binds | PfMCM binding protein (PfMCMBP) (protein, UniProt Q8ILX3 1-956) MNVLNQIDECFSDYLKIYGPKEIDSHWDEGVVVNKYITLGKAKDNNENKDNINKGDDNNNNNNNNIKEEINKKNDLSEEKNGNYKNYSNDKENDNSTYMAKNKKQKENLFICNDLVEKCICLNNLESLEEIEDASLVRWTCMIQQIISPESYLGIYKLKNKENGKIIMKSSKYKDYIDAEDNWEIVEENEKRGMGEYYEFNINKYYENGDNKMDQTVDILKNNQDVDKKIDEHNKKDEKSDPNKICSNEQNDITNNNTYDNMELYENDGNFNKYWKRYLFFCTNIPGNKSAWTKELYDYSSSYVNREVFLKSKSDYENGIYLKDVKDPMNNEDVNNSVASSTDISNYMNSNNNNNNSINNIYSSREYICSSNELNETQNNNNNKDKNEYKKIDTNDKINNNNSNNNSNNNSKSNHNNNYYFINSTDLDMNSNISSNICSYNISPVNTSNKIRCVIKIYDDDSQYNGKNDKEFLKLNDVIEIIGIYRKHQIKDFEDYKKNYNFYFYYDQHFLKYPCIHIFQYKKINYFNPLNNCILFKNDLSIIISQGPFNDIQKLRHHLIMYISSAFNNDMLIAHYFFFYLCGSYIKESKLKLGKISLNIFNILYNNEIEKLNDHISSDNVNPDQMKKLQNKIPNDIDLEKDANQLKVTNNNCFLNSNNKVLVKEADKKGIAPHAKKINKMIKNLIPLYRYIPLILQKLNTEYLVSVMNNQYGELKKGKLQLANNTYLTFDECLLDVGNLNNISIKNFQCIERLITSQEIPFIFNMDIIFQTEHNILILSKKKSMYSHYVDIAIPICHYNKIKHNLTDTNNEQKNENIENVKGSTNNDEPSNSHDQKNEQTKGIFSSEFYNNINNNYKPNEKELMQFRRYINYILSKNHSAKIPEDITNYITDSFVLLRQKNKDINQFVLNSWICMSRILAFSDGHNEINRDHWDYIMKLENERRLRLNNLNKIYI |  |
